First the molecules themselves.
B1: USE1 (protein, UniProt Q9CQ56 1-270)
chain: MAQAEGAYHRPLATSRLELNLVRLLCRCESMAAEKREPDEWRLEKYVGALEDMLQALKVQASKPASEVISEYSRKVDFLKGMLQAEKLTSSSEKALANQFLAPGRVPTTAKERVPATKTVHLQSRARYTSEMRSELLGMEPSGECEVDMRKRAAKGSRPADERQSASELDLVLQRHQGLQEKLAEEMLGLARSLKTNTLAAQSVIKKDNQTLSHSLKMADQNLEKLKLESERLEQHAQKSVNWLLWAMLIVVCFVFISMILFIRIMPRLK
B2: TSG101 (tumor susceptibility gene 101) (protein, UniProt Q61187 1-391)
chain: MAVSESQLKKMMSKYKYRDLTVRQTVNVIAMYKDLKPVLDSYVFNDGSSRELVNLTGTIPVRYRGNIYNIPICLWLLDTYPYNPPICFVKPTSSMTIKTGKHVDANGKIYLPYLHDWKHPRSELLELIQIMIVIFGEEPPVFSRPTVSASYPPYTATGPPNTSYMPGMPSGISAYPSGYPPNPSGYPGCPYPPAGPYPATTSSQYPSQPPVTTVGPSRDGTISEDTIRASLISAVSDKLRWRMKEEMDGAQAELNALKRTEEDLKKGHQKLEEMVTRLDQEVAEVDKNIELLKKKDEELSSALEKMENQSENNDIDEVIIPTAPLYKQILNLYAEENAIEDTIFYLGEALRRGVIDLDVFLKHVRLLSRKQFQLRALMQKARKTAGLSDLY
B3: CTNND1 (p120-catenin) (protein, UniProt P30999 1-938)
chain: MDDSEVESTASILASVKEQEAQFEKLTRALEEERRHVSAQLERVRVSPQDANSLMANGTLTRRHQNGRFVGDADLERQKFSDLKLNGPQDHNHLLYSTIPRMQEPGQIVETYTEEDPEGAMSVVSVETTDDGTTRRTETTVKKVVKTMTTRTVQPVPMGPDGLPVDASAVSNNYIQTLGRDFRKNGNGGPGPYVGQAGTATLPRNFHYPPDGYGRHYEDGYPGGSDNYGSLSRVTRIEERYRPSMEGYRAPSRQDVYGPQPQVRVGGSSVDLHRFHPEPYGLEDDQRSMGYDDLDYGMMSDYGTARRTGTPSDPRRRLRSYEDMIGEEVPPDQYYWAPLAQHERGSLASLDSLRKGMPPPSNWRQPELPEVIAMLGFRLDAVKSNAAAYLQHLCYRNDKVKTDVRKLKGIPILVGLLDHPKKEVHLGACGALKNISFGRDQDNKIAIKNCDGVPALVRLLRKARDMDLTEVITGTLWNLSSHDSIKMEIVDHALHALTDEVIIPHSGWEREPNEDCKPRHIEWESVLTNTAGCLRNVSSERSEARRKLRECDGLVDALIFIVQAEIGQKDSDSKLVENCVCLLRNLSYQVHREIPQAERYQEALPTVANSTGPHAASCFGAKKGKDEWFSRGKKPTEDPANDTVDFPKRTSPARGYELLFQPEVVRIYISLLKESKTPAILEASAGAIQNLCAGRWTYGRYIRSALRQEKALSAIAELLTSEHERVVKAASGALRNLAVDARNKELIGKHAIPNLVKNLPGGQQNSSWNFSEDTVVSILNTINEVIAENLEAAKKLRETQGIEKLVLINKSGNRSEKEVRAAALVLQTIWGYKELRKPLEKEGWKKSDFQVNLNNASRSQSSHSYDDSTLPLIDRNQKSDKKPDREEIPMSNMGSNTKSLDNNYSTLNERGDHNRTLDRSGDLGDMEPLKGAPLMQKI
B4: USP8 (enzyme, UniProt Q80U87 1-1080)
chain: MPAVASVPKELYLSSSLKDLNKKTEVKPEKTSTKNYIHSAQKIFKTAEECRLDRDEERAYVLYMKYVAVYNLIKKRPDFKQQQDYYLSILGPANIKKAIEEAERLSESLKLRYEEAEVRKQLEEKDRREEEQLQQQKRQEMGREDSGAAAKRSVENLLDSKTKTQRINGEKSEGAAAAERGAITAKELYTMMMDKNTSLIIMDARKIQDYQHSCILDSLSVPEEAISPGVTASWIEANLSDDSKDTWKKRGSVDYVVLLDWFSSAKDLLLGTTLRSLKDALFKWESKTVLRHEPLVLEGGYENWLLCYPQFTTNAKVTPPPRSRAEEVSVSLDFTYPSLEEPVPSKLPTQMPPPPIETNEKALLVTDQDEKLRLSTQPALAGPGAAPRAEASPIIQPAPATKSVPQVDRTKKPSVKLPEDHRIKSENTDQSGRVLSDRSTKPVFPSPTTMLTDEEKARIHQETALLMEKNKQEKELWDKQQKEQKEKLRREEQERKAGKTQDADERDSTENQHKAKDGQEKKDSKQTKTEDRELSADGAQEATGTQRQSKSEHEASDAKVPVEGKRCPTSEAQKRPADVSPASVSGELNAGKAQREPLTRARSEEMGRIVPGLPLGWAKFLDPITGTFRYYHSPTNTVHMYPPEMAPSSAPPSTPPTHKVKPQVPAERDREPSKLKRSYSSPDITQALQEEEKRRPAVTPMVNRENKPPCYPKAEISRLSASQIRNLNPVFGGSGPALTGLRNLGNTCYMNSILQCLCNAPHLADYFNRNCYQDDINRSNLLGHKGEVAEEFGIIMKALWTGQYRYISPKDFKVTIGKINDQFAGSSQQDSQELLLFLMDGLHEDLNKADNRKRHKEENNEHLDDLQAAEHAWQKHKQLNESIIVALFQGQFKSTVQCLTCRRRSRTFEAFMYLSLPLASTSKCTLQDCLRLFSKEEKLTDNNRFYCSHCRARRDSLKKIEIWKLPPVLLVHLKRFSYDGRWKQKLQTSVDFPLENLDLSQYVIGPKNSLKKYNLFSVSNHYGGLDGGHYTAYCKNAARQRWFKFDDHEVSDISVSSVRSSAAYILFYTSLGPRITDVAT
B5: PTPN14 (enzyme, UniProt Q62130 1-1189)
chain: MPFGLKLRRTRRYNVLSKNCFVTRIRLLDSNVIECTLSVESTGQECLEAVAQRLELRETHYFGLWFLSKSQQARWVELEKPLKKHLDKFANEPLLFFGVMFYVPNVSRLQQEATRYQYYLQVKKDVLEGRLRCSLEQVIRLAGLAVQADFGDYNQFDSQEFLREYVLFPMDLAMEEAALEELTQKVAQEHKAHSGILPAEAELMYINEVERLDGFGQEIFPVKDSHGNSVHLGIFFMGIFVRNRVGRQAVIYRWNDIGSVTHSKAAILLELIDKEETALFHTDDIENAKYISRLFTTRHKFYKQNKICTEQSNSPPPIRRQPTWSRSSLPRQQPYILPPMHVQCSEHYSETHTSQDSIFPGNEEALYCRSHNSLDLNYLNGTVTNGSVCSVHSVNSLSCSQSFIQASPVSSNLSIPGSDIMRADYIPSHRHSTIIVPSYRPTPDYETVMRQMKRGLMHADSQSRSLRNLNIINTHAYNQPEELVYSQPEMRERHPYTVPYAHQGCYGHKLVSPSDQMNPQNCAMPIKPGASSISHTVSTPELANMQLQGAQHYSTAHMLKNYLFRPPPPYPRPRPATSTPDLASHRHKYVSGSSPDLVTRKVQLSVKTFQEDSSPVVHQSLQEVSEPLTATKHHGGGGGTVNKRHSLEVMNSMVRGMEAMTLKSLNIPMARRNTLREQGPSEETGGHEVHGLPQYHHKKTFSDATMLIHSSESEEEEETLEAAPQVPVLREKVEYSAQLQAALARIPNRPPPEYPGPRKSVSNGALRQDQGTPLPAMARCRVLRHGPSKALSVSRAEQLAVNGASLGPSISEPDLTSVKERVKKEPVKERPVSEMFSLEDSIIEREMMIRNLEKQKMTGPQAQKRPLMLAALNGLSVARVSGREDGHHDATRVPIDERLRALKKKLEDGMVFTEYEQIPNKKANGVFSTATLPENAERSRIREVVPYEENRVELIPTKENNTGYINASHIKVVVGGSEWHYIATQGPLPHTCHDFWQMVWEQGVNVIAMVTAEEEGGRTKSHRYWPKLGSKHSSATYGKFKVTTKFRTDSGCYATTGLKVKHLLSGQERTVWHLQYTDWPHHGCPEDVQGFLSYLEEIQSVRRHTNSVLEGIRTRHPPIVVHCSAGVGRTGVVILSELMIYCLEHNEKVEVPTMLRFLREQRMFMIQTIAQYKFVYQVLVQFLQNSRLI
B6: WW domain-containing oxidoreductase (WWOX) (protein, UniProt Q91WL8 1-414)
chain: MAALRYAGLDDTDSEDELPPGWEERTTKDGWVYYANHTEEKTQWEHPKTGKRKRVAGDLPYGWEQETDENGQVFFVDHINKRTTYLDPRLAFTVDDNPTKPTTRQRYDGSTTAMEILQGRDFTGKVVLVTGANSGIGFETAKSFALHGAHVILACRNLSRASEAVSRILEEWHKAKVEAMTLDLAVLRSVQHFAEAFKAKNVSLHVLVCNAGTFALPWGLTKDGLETTFQVNHLGHFYLVQLLQDVLCRSSPARVIVVSSESHRFTDINDSSGKLDLSRLSPPRSDYWAMLAYNRSKLCNILFSNELHRRLSPRGVTSNAVHPGNMMYSAIHRNSWVYKLLFTLARPFTKSMQQGAATTVYCAVAPELEGLGGMYFNNCCRCLPSEEAQSEETARALWELSERLIQDRLGSPSS

Chains of the proteins cited; added tags and fusions are not shown. Residues count along the entry.
UniProt O89109: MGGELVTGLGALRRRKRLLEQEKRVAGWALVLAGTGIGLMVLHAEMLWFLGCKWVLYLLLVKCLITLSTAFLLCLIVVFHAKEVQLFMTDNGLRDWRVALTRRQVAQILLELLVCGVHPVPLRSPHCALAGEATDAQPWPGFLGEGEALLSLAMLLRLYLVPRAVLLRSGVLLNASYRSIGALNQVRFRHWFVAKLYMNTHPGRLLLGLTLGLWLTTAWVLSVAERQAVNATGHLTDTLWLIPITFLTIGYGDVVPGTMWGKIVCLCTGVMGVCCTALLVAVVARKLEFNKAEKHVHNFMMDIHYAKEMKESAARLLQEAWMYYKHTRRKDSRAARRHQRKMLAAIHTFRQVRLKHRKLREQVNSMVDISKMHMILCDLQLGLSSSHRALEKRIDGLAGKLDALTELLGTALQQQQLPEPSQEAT
UniProt Q80SW1: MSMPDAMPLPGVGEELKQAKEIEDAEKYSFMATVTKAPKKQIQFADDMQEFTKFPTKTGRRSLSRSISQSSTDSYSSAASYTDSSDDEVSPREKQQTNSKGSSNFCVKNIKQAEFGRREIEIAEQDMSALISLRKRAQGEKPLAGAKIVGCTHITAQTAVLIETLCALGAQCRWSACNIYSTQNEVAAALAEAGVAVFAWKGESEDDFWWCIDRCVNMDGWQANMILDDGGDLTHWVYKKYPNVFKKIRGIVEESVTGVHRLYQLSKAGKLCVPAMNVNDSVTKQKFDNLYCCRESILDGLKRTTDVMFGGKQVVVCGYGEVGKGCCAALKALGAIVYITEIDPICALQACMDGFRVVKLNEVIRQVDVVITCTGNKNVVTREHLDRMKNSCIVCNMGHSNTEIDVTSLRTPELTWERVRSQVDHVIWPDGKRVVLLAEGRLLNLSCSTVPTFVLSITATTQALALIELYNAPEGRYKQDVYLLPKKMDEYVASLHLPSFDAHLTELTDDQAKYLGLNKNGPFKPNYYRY
UniProt Q3TDN0: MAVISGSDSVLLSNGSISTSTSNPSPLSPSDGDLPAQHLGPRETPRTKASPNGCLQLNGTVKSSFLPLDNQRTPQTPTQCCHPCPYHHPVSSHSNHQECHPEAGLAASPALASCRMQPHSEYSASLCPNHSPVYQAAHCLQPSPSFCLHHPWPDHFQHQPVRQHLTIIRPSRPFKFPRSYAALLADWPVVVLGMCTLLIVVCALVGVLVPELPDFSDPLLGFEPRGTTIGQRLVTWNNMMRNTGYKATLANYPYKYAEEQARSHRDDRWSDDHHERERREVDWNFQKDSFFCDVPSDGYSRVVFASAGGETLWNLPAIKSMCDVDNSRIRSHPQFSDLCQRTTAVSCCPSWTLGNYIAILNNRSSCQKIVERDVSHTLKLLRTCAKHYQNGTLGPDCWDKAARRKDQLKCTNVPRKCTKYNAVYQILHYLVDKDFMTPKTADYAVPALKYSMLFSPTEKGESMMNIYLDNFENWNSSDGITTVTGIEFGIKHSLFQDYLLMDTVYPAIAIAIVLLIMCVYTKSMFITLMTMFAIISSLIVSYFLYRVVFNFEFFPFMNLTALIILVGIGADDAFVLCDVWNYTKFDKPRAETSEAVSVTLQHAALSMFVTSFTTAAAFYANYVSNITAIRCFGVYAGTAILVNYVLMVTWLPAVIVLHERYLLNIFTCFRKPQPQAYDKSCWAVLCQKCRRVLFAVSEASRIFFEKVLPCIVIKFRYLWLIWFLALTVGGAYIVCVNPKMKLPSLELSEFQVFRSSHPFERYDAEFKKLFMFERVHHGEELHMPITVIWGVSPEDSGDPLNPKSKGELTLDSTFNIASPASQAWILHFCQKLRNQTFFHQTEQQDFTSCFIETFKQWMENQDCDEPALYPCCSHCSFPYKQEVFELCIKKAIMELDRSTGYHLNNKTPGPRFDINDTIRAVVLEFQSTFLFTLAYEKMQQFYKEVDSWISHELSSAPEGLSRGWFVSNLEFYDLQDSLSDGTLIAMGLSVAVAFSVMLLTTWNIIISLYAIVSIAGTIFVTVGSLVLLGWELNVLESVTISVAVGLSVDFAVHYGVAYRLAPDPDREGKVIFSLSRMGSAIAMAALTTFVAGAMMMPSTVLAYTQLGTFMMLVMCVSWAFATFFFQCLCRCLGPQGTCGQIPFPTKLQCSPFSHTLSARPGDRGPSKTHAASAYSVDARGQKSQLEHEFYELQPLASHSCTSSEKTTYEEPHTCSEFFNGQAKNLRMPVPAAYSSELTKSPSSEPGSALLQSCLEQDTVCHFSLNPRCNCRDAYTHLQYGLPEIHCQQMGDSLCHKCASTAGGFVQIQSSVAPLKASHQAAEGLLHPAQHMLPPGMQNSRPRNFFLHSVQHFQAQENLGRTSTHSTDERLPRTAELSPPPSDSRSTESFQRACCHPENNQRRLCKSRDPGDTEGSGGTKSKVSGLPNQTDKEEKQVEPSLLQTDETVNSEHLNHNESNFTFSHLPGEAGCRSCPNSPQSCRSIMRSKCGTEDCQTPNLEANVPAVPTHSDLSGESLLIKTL
UniProt Q80TH2: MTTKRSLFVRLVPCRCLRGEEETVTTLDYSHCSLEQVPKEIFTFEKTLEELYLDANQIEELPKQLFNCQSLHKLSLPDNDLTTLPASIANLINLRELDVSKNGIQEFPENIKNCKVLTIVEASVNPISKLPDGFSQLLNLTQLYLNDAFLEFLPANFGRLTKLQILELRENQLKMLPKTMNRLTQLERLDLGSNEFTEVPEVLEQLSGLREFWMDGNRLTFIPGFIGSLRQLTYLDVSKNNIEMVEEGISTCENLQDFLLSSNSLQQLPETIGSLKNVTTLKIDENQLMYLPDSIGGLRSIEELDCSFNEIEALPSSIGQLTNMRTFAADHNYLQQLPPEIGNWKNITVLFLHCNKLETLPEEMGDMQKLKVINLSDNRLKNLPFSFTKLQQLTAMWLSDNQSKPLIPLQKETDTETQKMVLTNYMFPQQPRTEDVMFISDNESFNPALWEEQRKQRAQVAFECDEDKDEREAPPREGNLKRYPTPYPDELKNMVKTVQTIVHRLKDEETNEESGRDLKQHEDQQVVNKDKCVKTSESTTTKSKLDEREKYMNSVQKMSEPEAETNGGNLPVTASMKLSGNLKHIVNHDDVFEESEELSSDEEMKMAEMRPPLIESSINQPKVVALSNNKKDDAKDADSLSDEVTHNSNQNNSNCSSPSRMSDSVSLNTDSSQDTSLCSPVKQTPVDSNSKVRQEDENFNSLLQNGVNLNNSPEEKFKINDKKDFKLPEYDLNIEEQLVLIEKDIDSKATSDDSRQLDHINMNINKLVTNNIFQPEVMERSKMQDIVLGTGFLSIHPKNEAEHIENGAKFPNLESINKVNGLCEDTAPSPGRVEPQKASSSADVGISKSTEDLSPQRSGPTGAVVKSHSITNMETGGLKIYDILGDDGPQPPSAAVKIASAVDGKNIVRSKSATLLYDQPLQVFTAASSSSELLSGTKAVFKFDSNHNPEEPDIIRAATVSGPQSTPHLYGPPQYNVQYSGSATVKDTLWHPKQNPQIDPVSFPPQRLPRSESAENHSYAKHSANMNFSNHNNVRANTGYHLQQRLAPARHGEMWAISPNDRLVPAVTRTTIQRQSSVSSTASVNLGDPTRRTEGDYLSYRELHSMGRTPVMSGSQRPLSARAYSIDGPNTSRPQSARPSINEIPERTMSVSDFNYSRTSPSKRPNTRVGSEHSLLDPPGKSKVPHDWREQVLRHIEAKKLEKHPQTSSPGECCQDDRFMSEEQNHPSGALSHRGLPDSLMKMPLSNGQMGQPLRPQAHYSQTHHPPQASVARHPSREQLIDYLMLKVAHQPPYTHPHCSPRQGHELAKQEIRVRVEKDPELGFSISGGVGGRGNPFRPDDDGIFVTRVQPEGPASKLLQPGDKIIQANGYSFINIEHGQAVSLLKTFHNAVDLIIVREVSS
UniProt P16056, residues 25-1379: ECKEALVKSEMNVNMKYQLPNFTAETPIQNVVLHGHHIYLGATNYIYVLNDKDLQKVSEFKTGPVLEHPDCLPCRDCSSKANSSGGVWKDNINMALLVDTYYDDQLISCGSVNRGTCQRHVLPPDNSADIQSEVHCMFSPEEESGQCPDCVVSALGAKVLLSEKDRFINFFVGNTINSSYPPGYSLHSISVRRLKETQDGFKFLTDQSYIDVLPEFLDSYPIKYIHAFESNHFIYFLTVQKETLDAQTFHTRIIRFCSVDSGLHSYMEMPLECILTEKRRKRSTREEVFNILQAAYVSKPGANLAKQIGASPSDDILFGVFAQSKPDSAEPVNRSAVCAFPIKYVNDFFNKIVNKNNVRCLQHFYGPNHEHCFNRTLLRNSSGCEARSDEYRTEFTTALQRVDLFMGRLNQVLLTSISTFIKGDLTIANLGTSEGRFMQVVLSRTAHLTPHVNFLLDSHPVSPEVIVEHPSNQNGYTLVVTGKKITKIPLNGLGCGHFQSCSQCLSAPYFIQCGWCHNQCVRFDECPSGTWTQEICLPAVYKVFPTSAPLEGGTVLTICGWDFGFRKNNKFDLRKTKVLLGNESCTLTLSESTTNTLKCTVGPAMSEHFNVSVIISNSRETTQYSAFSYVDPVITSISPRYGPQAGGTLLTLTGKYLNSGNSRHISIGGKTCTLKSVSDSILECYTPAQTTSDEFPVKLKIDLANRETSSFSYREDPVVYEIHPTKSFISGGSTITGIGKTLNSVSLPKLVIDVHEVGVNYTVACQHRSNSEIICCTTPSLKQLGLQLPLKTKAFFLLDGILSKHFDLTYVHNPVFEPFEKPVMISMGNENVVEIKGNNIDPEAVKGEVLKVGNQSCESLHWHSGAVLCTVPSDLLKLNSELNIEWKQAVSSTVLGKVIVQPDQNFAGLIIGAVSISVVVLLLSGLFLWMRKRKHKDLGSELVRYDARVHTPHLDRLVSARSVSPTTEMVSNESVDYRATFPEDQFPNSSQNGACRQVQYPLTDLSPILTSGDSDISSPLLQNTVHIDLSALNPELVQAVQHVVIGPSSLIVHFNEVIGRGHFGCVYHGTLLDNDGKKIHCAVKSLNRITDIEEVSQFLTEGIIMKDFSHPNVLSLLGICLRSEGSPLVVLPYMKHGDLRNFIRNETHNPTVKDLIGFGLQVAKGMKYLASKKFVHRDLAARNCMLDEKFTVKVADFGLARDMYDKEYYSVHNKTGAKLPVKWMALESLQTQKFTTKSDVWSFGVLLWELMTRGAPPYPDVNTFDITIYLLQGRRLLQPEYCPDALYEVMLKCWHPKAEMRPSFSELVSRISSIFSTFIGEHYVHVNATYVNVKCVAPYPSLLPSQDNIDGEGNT
UniProt Q8BRF7: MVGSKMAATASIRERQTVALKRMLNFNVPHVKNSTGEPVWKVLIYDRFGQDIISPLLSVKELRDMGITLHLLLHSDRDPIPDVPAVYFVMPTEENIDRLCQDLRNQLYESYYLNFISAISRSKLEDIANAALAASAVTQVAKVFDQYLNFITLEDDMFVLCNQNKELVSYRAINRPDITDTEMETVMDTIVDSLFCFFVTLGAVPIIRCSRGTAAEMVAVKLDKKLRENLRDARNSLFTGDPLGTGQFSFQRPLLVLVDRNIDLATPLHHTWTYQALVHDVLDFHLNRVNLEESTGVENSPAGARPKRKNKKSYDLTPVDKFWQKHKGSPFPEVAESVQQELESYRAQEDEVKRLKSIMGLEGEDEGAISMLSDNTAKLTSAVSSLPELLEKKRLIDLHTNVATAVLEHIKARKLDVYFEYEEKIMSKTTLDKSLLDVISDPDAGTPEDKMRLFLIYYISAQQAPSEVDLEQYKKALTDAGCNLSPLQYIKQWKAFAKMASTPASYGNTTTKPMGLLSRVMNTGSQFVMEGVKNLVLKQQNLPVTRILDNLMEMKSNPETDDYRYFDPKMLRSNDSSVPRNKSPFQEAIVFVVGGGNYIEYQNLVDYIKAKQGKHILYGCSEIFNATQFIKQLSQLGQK
UniProt P70302, residues 23-685: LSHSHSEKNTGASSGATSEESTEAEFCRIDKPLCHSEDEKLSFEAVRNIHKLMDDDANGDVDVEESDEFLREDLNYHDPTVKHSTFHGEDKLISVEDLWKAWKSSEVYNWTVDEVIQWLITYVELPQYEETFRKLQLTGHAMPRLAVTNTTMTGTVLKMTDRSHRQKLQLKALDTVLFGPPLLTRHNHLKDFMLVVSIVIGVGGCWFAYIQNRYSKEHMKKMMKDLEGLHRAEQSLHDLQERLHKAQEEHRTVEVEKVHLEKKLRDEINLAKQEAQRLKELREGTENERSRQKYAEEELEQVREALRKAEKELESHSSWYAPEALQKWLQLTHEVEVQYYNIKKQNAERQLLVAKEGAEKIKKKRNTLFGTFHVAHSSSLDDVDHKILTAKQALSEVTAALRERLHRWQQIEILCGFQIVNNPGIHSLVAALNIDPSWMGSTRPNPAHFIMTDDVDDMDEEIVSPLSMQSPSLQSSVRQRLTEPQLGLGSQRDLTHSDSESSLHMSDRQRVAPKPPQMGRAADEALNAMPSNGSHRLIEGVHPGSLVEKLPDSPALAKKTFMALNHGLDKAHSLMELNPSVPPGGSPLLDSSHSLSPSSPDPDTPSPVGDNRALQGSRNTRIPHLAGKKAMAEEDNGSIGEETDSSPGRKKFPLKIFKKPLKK

Results are given in words; binding and its absence hold for the method and conditions named. Binding seen in cells or lysates may run through a third protein. A yes stands for co-enrichment or nearness to the bait. Other partners may have been found.

The target in one test is KCa3.1-FLAG-TurboID (mouse) (UniProt O89109). The experiment in a line: proximity labelling; TurboID in intact KPC cells: KCa3.1-FLAG-TurboID induced with 1 ug/mL doxycycline for 24 h, 50 uM biotin for 3 h, RIPA lysis, streptavidin beads, TMT mass spectrometry; control cells with FLAG-TurboID; three independent repeats; hit: FDR below 5% and 1.5-fold change.
On to ABCC5 (from UniProt Q9R1X5 1-1436), for which the binding result is “binds”. Still for that read-out and setting: the value for “AHCYL1, adenosylhomocysteine hydrolase-like protein 1 (from UniProt Q80SW1 1-530)” was “binds”; that for APC (from UniProt Q61315 1-2845) was “binds”.

As for “CTNNB1 (β-catenin) (from UniProt Q02248 1-781)”, the binding entry was “binds”. Still for that read-out and setting: to DISP1 (from UniProt Q3TDN0 1-1521) belongs “binds”. The same measure, in the same setting: to “ERBB2 (HER2) (from UniProt P70424 23-1256) (receptor)” belongs “binds”; to ERBIN (from UniProt Q80TH2 1-1402), “binds”. Still for that read-out and setting: the value for “MET (from UniProt P16056 25-1379) (receptor)” was “binds”; that for SCFD1 (from UniProt Q8BRF7 1-639) was “binds”; that for SCRIB (from UniProt Q80U72 1-1665) was “binds”.

Consider “STIM1 (in KPC cells) (from UniProt P70302 23-685)”, for which the binding entry is reported as “binds”.

As for STIM2 (from UniProt P83093 15-746), the binding entry is “binds”.

The next test has the same target. The description is as above. This is another data set of the same source.
In the case of B1, the binding result is listed as “binds”. The same measure, in the same setting: the value for B2 was “binds”; that for B3 was “binds”; that for B4 was “binds”. For B5, the binding result is “binds”. Same read-out and setting: the value for B6 was “binds”.

The values are drawn from publication PMC12435150.
